# In PubChem BioAssay AID504467 (National Center for Advancing Translational Sciences (NCATS), 2011):
# The campaign covered roughly 330,000 compounds. About 7,700 (2.3%) were called active. Inconclusive means that the source gave no clear call. Such entries were picked first, then a sample of the others. Calls come from the whole dose curve; as a rule, active = well fitted inhibition curve with a large enough effect; inconclusive = small, poorly fitted or top-dose-only effect, or effect the other way; inactive = flat fitted curve, though single readings scatter. Potencies beside an inconclusive call are fits to weak or partial responses and may not hold up.
# Test: qHTS screen for small molecules that inhibit ELG1-dependent DNA repair in human embryonic kidney (HEK293T) cells expressing luciferase-tagged ELG1; note: nearly all actives have a fitted effect of over 55% in size
# Conditions: HEK293T ELG1-luciferase reporter, luminescence, 16 h, DNA damage induced by 5-fluorouridine; series mostly up to 46.1 µM
# Procedure, shortened: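 Luminescence from the luciferase reporter, measured 30 min after ONE-Glo reagent at room temperature, was the read-out. Beforehand, 2,000 cells per well were exposed for 16 hr at 37 °C to 5-fluorouridine together with compound or vehicle.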
# Potency is the fitted concentration of half-maximal effect.
row,SMILES,Potency
1,CC(=O)c1ccc(NC(=O)Nc2ccncc2)cc1,"inconclusive: 23.1 µM [activator, partial curve]"
2,COc1ccccc1CNC(=O)CC(C)C,inactive
3,COc1ccc(-n2ncc3c(NCc4cccnc4)ncnc32)cc1,"inconclusive: 2.31 µM [activator, partial curve]"
4,CCN(CC)CCCNC(=O)c1ccc2c3n(nc2c1)-c1ccc(Cl)cc1CO3,"inconclusive: 7.08 µM [activator, partial curve]"
5,Cc1ccc(SCC(=O)Nc2ccc(C(=O)Nc3ccc(O)cc3)cc2)cc1,"inconclusive: 29.1 µM [activator, single point]"
6,CCCCCc1c(C)c(C#N)c2nc3ccccc3n2c1-n1ccnc1C,"inconclusive: 18.4 µM [activator, single point]"
7,Cc1c(NC(=O)C(C)OC(=O)c2cc(-c3cccc4ccccc34)nc3ccccc23)c(=O)n(-c2ccccc2)n1C (stereo not given),"inconclusive: 18.4 µM [inhibitor, single point]"
8,COc1ccc(CN2CCN(c3cccc(C)c3C)CC2)cc1OC,"inconclusive: 16.4 µM [inhibitor, single point]"
9,Cc1ccc(C)c(NC(=O)CSc2nnc(CSc3nc(C)cc(C)n3)n2Cc2ccco2)c1,"inconclusive: 20.6 µM [inhibitor, single point]"
10,COc1ccc(OC)c(S(=O)(=O)N2CCN(C(=O)NC3CCCCC3)CC2)c1,"inconclusive: 14.6 µM [activator, partial curve, poor fit]"
11,CCN(CC)C(=O)c1[nH]cnc1C(=O)Nc1ccc(Cl)cc1,inactive
12,CCOC(=O)c1nc(NCc2cccc(OC)c2)c2ccccc2n1,"inconclusive: 20.6 µM [inhibitor, single point]"
13,O=C(CCN1CCOCC1)c1ccc(N2CCCCC2)cc1,"inconclusive: 20.6 µM [activator, partial curve]"
14,COc1ccc2[nH]c(=O)c(CN(Cc3cccs3)Cc3nnnn3Cc3ccccc3)cc2c1,"inconclusive: 23.1 µM [inhibitor, single point]"
15,CCOCCn1c(=NC(=O)CSCC(=O)Nc2cc(C)on2)sc2cc(OC)ccc21,active: 14.6 µM
16,N#CC(C#N)=NNc1ccc([N+](=O)[O-])cc1,inactive
17,O=C(c1ccc2c(c1)OCO2)N1CCN(S(=O)(=O)N2CCCCC2)CC1,inactive
18,CN1CCN(/N=C/c2ccc(N(c3ccccc3)c3ccccc3)cc2)CC1,"inconclusive: 5.8 µM [inhibitor, partial curve]"
19,Cc1ccc(C(=O)N/C(=C\c2ccc(-c3ccccc3[N+](=O)[O-])o2)C(=O)NCCCN(C)C)cc1,inactive
20,CCc1nc(N)c(C#N)c(-c2ccccc2OC)c1C,inactive
21,COc1ccc2oc(C(=O)CCC(=O)O)c(N)c2c1,inactive
22,CC(=O)/C(=N\Nc1ccccc1)Sc1nnc(-c2ccccc2)n1-c1ccccc1,"inconclusive: 18.4 µM [inhibitor, single point]"
23,O=S(=O)(NNc1cccc(Cl)n1)c1ccc(Cl)cc1,inactive
24,CC(C)N1CC(O)=C(c2nc3ccccc3c(=O)[nH]2)C1=N,"inconclusive: 13 µM [activator, partial curve, poor fit]"

row,SMILES,Potency
1,COc1ccc(NC(=O)c2cc(-c3ccc(C)cc3)on2)cc1,"inconclusive: 14.1 µM [activator, single point]"
2,O=C(c1ccco1)N1CCN(CC(O)Cn2c3ccccc3c3ccccc32)CC1 (stereo not given),"inconclusive: 0.0058 µM [activator, full curve, poor fit]"
3,COC1C(C)=C(C)C(=O)N1Cc1ccc(F)cc1 (stereo not given),"inconclusive: 1.16 µM [activator, full curve, poor fit]"
4,C/C(=N\NC(=O)c1ccoc1C)c1ccc(Br)s1,"inconclusive: 32.6 µM [activator, single point]"
5,CCC[C@H]1COCCS(=O)(=O)N1Cc1ccc(Br)cc1,inactive
6,CCCCSc1nnc(-c2c[nH]c3ccccc23)n1C,"inconclusive: 9.2 µM [activator, partial curve]"
7,O=C(CCC1CCCN(C(=O)c2ccc3[nH]ccc3c2)C1)N1CCN(c2ccccn2)CC1 (stereo not given),"inconclusive: 25.9 µM [inhibitor, single point]"
8,CNc1nc(C)nc(-n2nc(C)cc2C)n1,"inconclusive: 18.4 µM [activator, partial curve]"
9,CCOCCCn1c(=NC(=O)c2cccs2)c(C#N)cc2c(=O)n3cccc(C)c3nc21,inactive
10,CCc1c(C)nc(N2CCN(c3cccc(OC)c3)CC2)[nH]c1=O,inactive
11,O=C(CSc1ncnc2ccccc12)Nc1ccc2c(c1)OCO2,"inconclusive: 14.6 µM [inhibitor, partial curve]"
12,CC1CC(C)CN(S(=O)(=O)c2ccc(C(=O)N(C)Cc3ccccc3)cc2)C1 (stereo not given),inactive
13,O=C(COC(=O)CCC(=O)c1ccc2c(c1)OCCO2)NCc1ccc2c(c1)OCO2,inactive
14,CCOc1cc(/C=N/NC(=O)c2ccncc2)ccc1OS(C)(=O)=O,inactive
15,CCN(CC(=O)N1CCOCC1)S(=O)(=O)c1ccccc1,inactive
16,CCOC(=O)c1[nH]c(CN2CCN(c3ccc(OC)cc3)CC2)c(C(=O)OCC)c1C,active: 18.3 µM
17,COc1ccc2nc(SCC(=O)C(C)(C)C)[nH]c2c1,"inconclusive: 18.3 µM [activator, partial curve]"
18,COC(=O)c1ccc(CN2C(=O)NC3(CCC(C)CC3)C2=O)cc1 (stereo not given),"inconclusive: 20.6 µM [activator, single point]"
19,CCN1CCN(CCNC(=O)c2ccc3c(c2)N(Cc2cccc(Cl)c2)C(=O)c2ccccc2S3=O)CC1 (stereo not given),"inconclusive: 20.6 µM [activator, single point]"
20,O=C(Nc1nnc(C2CC2)s1)c1cccs1,"inconclusive: 11.6 µM [activator, partial curve]"
21,COc1ccc(-c2ccc3c(c2)S(=O)(=O)c2cccc(C(=O)NCCOc4ccccc4)c2C3=O)cc1OC,"inconclusive: 0.92 µM [inhibitor, full curve]"
22,O=C(Nc1cccc(Cl)c1)Nc1cc(S(=O)(=O)N2CCOCC2)ccc1N1CCCC1,inactive
23,Cc1ccc(-c2csc(NC(=O)C3=COCCO3)n2)cc1C,"inconclusive: 7.3 µM [activator, partial curve]"
24,CCC1CN(C(=O)N2CCC(C(=O)NCc3cccc(OC)c3OC)CC2)c2cc(C)ccc2O1 (stereo not given),active: 14.6 µM

# Reformatted with tabs: part of the list above.
row	SMILES	Potency
9	Cc1ccc(C)c(NC(=O)CSc2nnc(CSc3nc(C)cc(C)n3)n2Cc2ccco2)c1	inconclusive: 20.6 µM [inhibitor, single point]
10	COc1ccc(OC)c(S(=O)(=O)N2CCN(C(=O)NC3CCCCC3)CC2)c1	inconclusive: 14.6 µM [activator, partial curve, poor fit]
11	CCN(CC)C(=O)c1[nH]cnc1C(=O)Nc1ccc(Cl)cc1	inactive
12	CCOC(=O)c1nc(NCc2cccc(OC)c2)c2ccccc2n1	inconclusive: 20.6 µM [inhibitor, single point]
13	O=C(CCN1CCOCC1)c1ccc(N2CCCCC2)cc1	inconclusive: 20.6 µM [activator, partial curve]
14	COc1ccc2[nH]c(=O)c(CN(Cc3cccs3)Cc3nnnn3Cc3ccccc3)cc2c1	inconclusive: 23.1 µM [inhibitor, single point]
15	CCOCCn1c(=NC(=O)CSCC(=O)Nc2cc(C)on2)sc2cc(OC)ccc21	active: 14.6 µM
16	N#CC(C#N)=NNc1ccc([N+](=O)[O-])cc1	inactive
17	O=C(c1ccc2c(c1)OCO2)N1CCN(S(=O)(=O)N2CCCCC2)CC1	inactive
18	CN1CCN(/N=C/c2ccc(N(c3ccccc3)c3ccccc3)cc2)CC1	inconclusive: 5.8 µM [inhibitor, partial curve]
19	Cc1ccc(C(=O)N/C(=C\c2ccc(-c3ccccc3[N+](=O)[O-])o2)C(=O)NCCCN(C)C)cc1	inactive
20	CCc1nc(N)c(C#N)c(-c2ccccc2OC)c1C	inactive
21	COc1ccc2oc(C(=O)CCC(=O)O)c(N)c2c1	inactive

# 2 entries from above, with bars between the fields.
row | SMILES | Potency
12 | CC1CC(C)CN(S(=O)(=O)c2ccc(C(=O)N(C)Cc3ccccc3)cc2)C1 (stereo not given) | inactive
23 | Cc1ccc(-c2csc(NC(=O)C3=COCCO3)n2)cc1C | inconclusive: 7.3 µM [activator, partial curve]

# Next part.

row,SMILES,Potency
1,Cc1cccnc1CN1CCN(C(=O)CCc2nnc(CCc3ccccc3)o2)CC1,"inconclusive: 29.1 µM [activator, single point]"
2,COC(=O)c1ccc(CN(C)S(=O)(=O)c2cccs2)cc1,"inconclusive: 29.1 µM [activator, single point]"
3,O=C(COC(=O)C12CC3CC(CC(Cl)(C3)C1)C2)Nc1ccc2[nH]c(=O)[nH]c2c1,inactive
4,O=C(CNC(=O)c1cccc(F)c1)N/N=C/c1cccnc1,"inconclusive: 23.1 µM [activator, single point]"
5,O=S(=O)(c1ccc(=S)[nH]c1)N1CCCC1,"inconclusive: 32.6 µM [activator, partial curve, poor fit]"
6,O=C(c1ccc(F)cc1)N1CCN(C2CCC(c3ccccc3)CC2)CC1 (stereo not given),"inconclusive: 25.9 µM [inhibitor, partial curve, poor fit]"
7,Oc1[nH]c2ccccc2c1N=Nc1ccccc1,"inconclusive: 18.3 µM [activator, partial curve]"
8,Cc1ccccc1NCc1nc2ccccc2n1C,"inconclusive: 4.61 µM [activator, partial curve]"
9,O=C(c1ccco1)N1CCCC(N2CCN(c3cccc(C(F)(F)F)c3)CC2)C1 (stereo not given),inactive
10,CCO[C@@H]1OC(C(=O)N2CCN(Cc3ccc4c(c3)OCO4)CC2)=C[C@H](c2coc3ccccc3c2=O)[C@H]1CCCO,"inconclusive: 29.1 µM [inhibitor, single point]"
11,CCN(CC)S(=O)(=O)c1cccc(C(=O)NCC2CCCCC2)c1,inactive
12,C=CCn1c(N2CCCCCC2)nc2c1c(=O)n(C)c(=O)n2C,"inconclusive: 8.91 µM [inhibitor, partial curve, poor fit]"
13,COC(=O)C1CCN(C(=O)/C=C/c2ccc(OC)cc2)CC1,"inconclusive: 2.31 µM [activator, full curve]"
14,Cc1cc(OCC(=O)Nc2ccncc2)ccc1[N+](=O)[O-],active: 7.3 µM
15,CC(C)(C)CC(=O)Nc1nnc(SCC(=O)Nc2ccccc2F)s1,"inconclusive: 23.1 µM [inhibitor, single point]"
16,CC1CCN(S(=O)(=O)c2cccc(C(=O)Nc3nccs3)c2)CC1,"inconclusive: 16.4 µM [inhibitor, partial curve, poor fit]"
17,Clc1ccc(OCCOCCNCc2ccccc2)cc1Cl,"inconclusive: 6.51 µM [inhibitor, single point]"
18,CCOC(=O)N1CCN(C(=O)CN(Cc2ccc(Cl)cc2)S(=O)(=O)c2ccccc2)CC1,"inconclusive: 29.1 µM [inhibitor, single point]"
19,COc1ccc(OC)c(CN2CCN(C(=O)[C@@H](NC(=O)c3cccc(C)c3)C(C)C)CC2)c1,"inconclusive: 29.1 µM [inhibitor, partial curve, poor fit]"
20,O=C(NCCN1CCOCC1)c1noc2c1CCc1ccccc1-2,"inconclusive: 5.8 µM [activator, single point]"
21,CN(C)C(=O)CSc1nc2ccc(C(=O)c3ccccc3)cc2[nH]1,inactive
22,O=C(CCn1c(=O)sc2ccccc21)NCc1cccs1,inactive
